Data on one substance can be found in PMC11425199.

By UniProt entry, the sequences of proteins in these tests, tags left out. Residues count along the entry.
UniProt Q9DC69, residues 36-377: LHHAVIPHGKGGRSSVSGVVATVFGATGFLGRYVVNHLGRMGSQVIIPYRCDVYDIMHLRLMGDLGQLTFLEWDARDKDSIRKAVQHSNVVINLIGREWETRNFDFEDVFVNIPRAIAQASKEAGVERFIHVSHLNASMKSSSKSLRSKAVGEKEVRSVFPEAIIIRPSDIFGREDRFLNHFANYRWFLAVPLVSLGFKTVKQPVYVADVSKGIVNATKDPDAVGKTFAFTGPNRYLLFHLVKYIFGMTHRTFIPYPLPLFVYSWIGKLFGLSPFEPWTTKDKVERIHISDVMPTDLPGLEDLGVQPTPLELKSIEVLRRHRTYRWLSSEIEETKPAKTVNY

The target of the experiment is T1, FLAG-tagged Aifm3 (apoptosis-inducing factor mitochondria associated 3) (mouse) (UniProt Q3TY86).
T1 sequence: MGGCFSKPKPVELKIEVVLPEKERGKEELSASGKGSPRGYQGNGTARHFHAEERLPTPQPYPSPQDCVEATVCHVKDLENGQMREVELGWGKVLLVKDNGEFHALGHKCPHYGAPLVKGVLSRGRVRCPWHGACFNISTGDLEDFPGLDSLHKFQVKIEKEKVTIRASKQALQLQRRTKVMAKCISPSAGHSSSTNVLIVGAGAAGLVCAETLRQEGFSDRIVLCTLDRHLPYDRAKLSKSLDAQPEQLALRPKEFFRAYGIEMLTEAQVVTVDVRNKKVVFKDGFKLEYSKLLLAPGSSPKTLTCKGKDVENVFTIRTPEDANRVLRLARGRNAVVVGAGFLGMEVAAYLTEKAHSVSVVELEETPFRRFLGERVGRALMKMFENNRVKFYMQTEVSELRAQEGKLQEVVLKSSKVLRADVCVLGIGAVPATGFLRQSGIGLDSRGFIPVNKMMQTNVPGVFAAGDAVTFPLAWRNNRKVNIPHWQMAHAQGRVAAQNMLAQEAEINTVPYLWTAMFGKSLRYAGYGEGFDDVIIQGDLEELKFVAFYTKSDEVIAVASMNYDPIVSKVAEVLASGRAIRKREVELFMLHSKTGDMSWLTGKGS
The experiment can be described thus: co-IP; N2a cells co-transfected with FLAG- and HA-tagged overexpression plasmids for 3 d; lysed in co-IP lysis buffer (Beyotime) with 1% PMSF and 1% protease inhibitor cocktail; supernatant incubated with anti-Flag or HA-tag magnetic beads (MBL) at 4° overnight; washed 3 times with cold 0.02% PBST; Western blot. For orientation: A western blot detects proteins with antibodies after separation by electrophoresis.

These are yes or no findings as the source states them, for the method shown. In cells and extracts the contact can be indirect. Some results given as binding are weak or reduced against the parent protein; the word gives no strength. Sequences can lack the tags named with a protein.

Take “HA-tagged Ndufa9 (from UniProt Q9DC69 36-377)”: the binding result is listed as “binds”.
